Literature values as cited in patent US20020035106A1, “Use of potassium channel agonists for reducing fat food consumption” (priority 2000, published 2002).
For at least one compound, name, drawing or mass did not settle the structure.

System: mice
Conditions: intracerebroventricular administration; cited from earlier work

Question: With `Nc1cc(N2CCCCC2)nc(N)[n+]1[O-]` [minoxidil] as the molecule, how does the intake of food read?
Answer: Its intake of food is “increase to intake of food”.
